These results are taken from paper PMC10086757.

The chains behind the UniProt entries cited, without tags or fusion partners.
UniProt O60260: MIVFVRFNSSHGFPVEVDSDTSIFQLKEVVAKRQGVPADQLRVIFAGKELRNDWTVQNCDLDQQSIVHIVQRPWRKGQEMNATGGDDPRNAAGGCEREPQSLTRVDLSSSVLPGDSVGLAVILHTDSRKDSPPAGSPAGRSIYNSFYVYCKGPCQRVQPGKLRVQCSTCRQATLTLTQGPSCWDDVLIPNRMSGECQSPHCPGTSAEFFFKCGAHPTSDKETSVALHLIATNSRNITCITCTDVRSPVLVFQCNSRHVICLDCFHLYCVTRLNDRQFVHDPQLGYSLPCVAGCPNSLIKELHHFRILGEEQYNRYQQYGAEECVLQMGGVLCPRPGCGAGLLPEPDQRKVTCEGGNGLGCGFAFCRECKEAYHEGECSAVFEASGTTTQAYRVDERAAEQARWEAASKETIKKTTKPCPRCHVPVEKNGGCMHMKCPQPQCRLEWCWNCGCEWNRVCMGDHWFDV

No constants are given. Whether binding was seen depends on the method and setting. For part of these data: Binding seen in cells or lysates may run through a third protein. Some entries that bind do so weakly or less than the wild type. For part of these data: Sequences can lack the tags named with a protein.

The target in one test is T1, Flag-Vdr (293T) (UniProt P11473).
T1 sequence: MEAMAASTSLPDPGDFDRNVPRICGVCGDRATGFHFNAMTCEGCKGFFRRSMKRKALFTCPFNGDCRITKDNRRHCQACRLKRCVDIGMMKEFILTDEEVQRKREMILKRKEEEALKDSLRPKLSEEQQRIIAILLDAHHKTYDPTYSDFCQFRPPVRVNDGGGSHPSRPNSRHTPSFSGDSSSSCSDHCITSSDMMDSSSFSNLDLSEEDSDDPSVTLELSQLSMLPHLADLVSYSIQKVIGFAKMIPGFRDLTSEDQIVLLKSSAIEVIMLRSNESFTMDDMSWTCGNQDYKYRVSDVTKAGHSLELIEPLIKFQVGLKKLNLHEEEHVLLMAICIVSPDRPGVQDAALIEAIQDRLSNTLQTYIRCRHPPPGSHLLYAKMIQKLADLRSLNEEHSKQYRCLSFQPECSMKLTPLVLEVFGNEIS
Briefly: co-IP; tagged proteins overexpressed in 293T (HEK293T) cells; RIPA buffer, antibody overnight, Protein A/G magnetic beads, immunoblot.

The target of a further test is T2, GST-VDR (UniProt P11473).
T2 sequence: T1 sequence
Briefly: pull-down; purified GST-VDR incubated with purified His-Parkin for two h; pulled down by glutathione beads, immunoblot; both purified. On the technique in general: In western blotting, separated proteins are transferred to a membrane and probed.

In test [1] the target is T3, Vitamin D receptor (VDR), endogenous in HCT116 (human (endogenous in HCT116)) (UniProt P11473).
T3 sequence: T1 sequence
Briefly: co-IP; cytoplasm and nucleus of HCT116 isolated, then immunoprecipitated and immunoblotted.

As to “HA-Parkin (293T) (from UniProt O60260 1-465)”, the binding entry with Flag-Vdr (293T) is on record as “binds”. His-Parkin (from UniProt O60260 1-465): the binding entry with GST-VDR is recorded as “binds”. Regarding “Parkin, endogenous in HCT116 (from UniProt O60260 1-465)”, the binding entry in test [1] was “binds”.
